Paper PMC4980028, “Discovery of a Series of Acridinones as Mechanism-Based Tubulin Assembly Inhibitors with Anticancer Activity” (PLoS ONE, 2016)

Test system: MDA-MB-231 cells
Assay: Boyden chamber (transwell) migration assay
Assay type: cell-based, human
Details: MDA-MB-231, transwell, 6 h; read-out: IC50 Cell migration
Procedure: Transwells containing 0.3 cm^2 inserts with 8.0 μm pore polyethylene terephthalate membranes (Corning Falcon^TM) were used to quantify cell migration. MDA-MB-231 cells were added at a density of 4 x 10^4 cells/insert in serum-free media (300 μL) in the upper chambers. In the lower chambers, 700 μL of medium supplemented with 10% FBS was added. Test compounds were added at 7 different concentrations (10–0.04 μM) in both the upper and lower chambers. The systems were incubated at 37°C for 6 h. Next, the cells inside the insert were removed with a cotton swab and the cells under the membrane were fixed with methanol and stained with toluidine blue for 5 min. Pictures of the stained membrane were taken under a 10X objective (Optiphase), and the cells were quantified using NIS Elements software (NIKON). Two independent experiments were conducted in duplicate.

SMILES: COc1cc2c(c(OC)c1OC)-c1ccc(OC)c(=O)cc1[C@@H](NC(C)=O)CC2 [Colchicine, colchicine, reference compound]
- IC50: 320 ± 3 nM
